{
  "source": "patent US8859612B2",
  "about": "“Use of hesperidin or one of its derivatives for making a medicine for bone formation stimulation” (Institut National de la Recherche Agronomique (INRA), priority 2002, dated 2014)",
  "system": "oophorectomised rat (OVX) and sham-operated control rats (SH)",
  "assay": "Femoral biomechanics (Example 1)",
  "assay_type": "in vivo, Wistar rats",
  "conditions": "Hp OVX: oophorectomised rats, hesperidin 0.5% in diet, 3 months",
  "excerpt": "In order to study the possible impact of this molecule on bone tissue, 40 female 3 months old Wistar rats (266±2 g) were used. These animals were accustomed to a basic semi-synthetic diet for the 7 days preceding the start of the period of experimentation. At D0, 20 rats were sham-operated, the other 20 were oophorectomised. Distributed in groups of 10, they were fed on various diets for 3 months, at the end of which they were sacrificed. The last week before being killed, from D85 to D90, the rats were inspected and the urine was collected (over a period of 24 hours). Similarly, the body composition of the rats was measured. After being killed the plasma and the femurs were collected for different analyses [Femurs: resistance to rupture, densitometry; Plasma: osteocalcinemia (marker for osteoblast activity), hesperetin level: Urines: desoxypyridinoline (marker for bone resorption)]. Throughout the entire duration of the experimentation, the rats were weighed once a week. The daily quantity of food distributed to each animal was 20 g.\n10 T SH and 10 T OVX: sham-operated and oophorectomised rats receiving a standard control diet for 3 months\n10 Hp SH et 10 Hp OVX: sham-operated and oophorectomised rats receiving a standard control diet supplemented with hesperidin (0.5%) for 3 months",
  "note": "For at least one compound, name, drawing or mass did not settle the structure.",
  "data": [
    {"smiles": "COc1ccc([C@@H]2CC(=O)c3c(O)cc(O[C@@H]4O[C@H](CO[C@@H]5O[C@@H](C)[C@H](O)[C@@H](O)[C@H]5O)[C@@H](O)[C@H](O)[C@H]4O)cc3O2)cc1O", "note": "[hesperidin, (S)-7-[[6-0-(6-deoxy-α-L-mannopyranosyl)-β-D-glucopyranosyl]oxy]-2,3-dihydro-5-hydroxy-2-(3-hydroxy-4-methoxyphenyl)-4H-1-benzopyran-4-one]", "values": [
      {"measurement": "Femoral resistance to rupture", "result": "11 2.4 ± 3.4 N"}
    ]}
  ]
}
